The text below walks through data of paper doi:10.1101/2023.01.23.525122 (bioRxiv, 2023).

Common to all, as to test: SDS-resistant oligomer detection by SDS-PAGE
The target in test [1] is NPM1(1–259) (UniProt P06748).
The target in test [2] is NPM1/nucleophosmin, wild type (UniProt P06748).
The target of test [3] is NPM1-236A (UniProt P06748).
In test [4] the target is NPM1-234567A (UniProt P06748).

Substitutions are numbered along the chain they refer to. No constants are given. Whether binding was seen depends on the method and setting. Some results given as binding are weak or reduced against the parent protein; the word gives no strength.

As to “NPM1(1–259) (from UniProt P06748 1-259) (domain or fragment)”, in test [1], the binding result is “binds”.
As to “NPM1/nucleophosmin, wild type (from UniProt P06748 1-294)”, the binding result in test [2] was “binds weakly”.

B1: NPM1-236A (natural protein, UniProt P06748 1-294, looked up)
chain: MAASMAMDMSPLRPQNYLFGCELKADKDYHFKVDNDENEHQLSLRTVSLGAGAKDELHIVEAEAMNYEGSPIKVTLATLKMSVQPTVSLGGFEITPPVVLRLKCGSGPVHISGQHLVAVEEDAESEDEEEEDVKLLSISGKRSAPGGGSKVPQKKVKLAADEDDDDDDEEDDDEDDDDDDFDDEEAEEKAPVKKSIRDTPAKNAQKSNQNGKDSKPSSTPRSKGQESFKKQEKTPKTPKGPSSVEDIKAKMQASIEKGGSLPKVEAKFINYVKNCFRMTDQEAIQDLWQWRKSL
B1: the binding result in test [3] is “binds weakly”.

B2: NPM1-234567A (natural protein, UniProt P06748 1-294, looked up)
chain: B1 chain with S4A, M5A, M7A
Turning to B2, in test [4], the binding entry is recorded as “binds weakly”.
